# Assay results taken from US20110059482A1, “Sampling Kit” (priority 2008, published 2011).
# Some of these results come from one statement about several compounds together.
# Assay: Storage stability / shelf life of antibiotics, tablet and Herogel components
# Type: physicochemical
# Conditions: stored at about 8° C. (refrigerator)
# Description: Background: Herogel is a selective growth medium comprising aztreonam and colistin to inhibit the growth of Enterobacteriaceae. Cefoxitin is added to the medium in order to inhibit the growth of MSSA (Methicillin Sensitive Staphylococcus Aureus). Cefoxitin has a short shelf life if it is added to the medium upon manufacturing of the medium and together with other antibiotics. Tests performed at Karolinska University Hospital Laboratory have shown that the activity of cefoxitin in liquid form is reduced after 14 days at about 8° C. (i.e. in a refrigerator) and that aztreonam and colistin if they are added to the growth medium are active for at least 4 months if stored at a temperature of about 8° C. (i.e. in a refrigerator). In order to prolong the shelf life of the Herogel, cefoxitin is incorporated in the tablet in Batch 1. The hypothesis is that the shelf life of the herogel will be prolonged if the tablet is added immediately after the sampling. The shelf life of the tablet is estimated to about 12 months in room temperature. The other components of the Herogel medium have a documented shelf life of at least 6 months upon storage in a refrigerator.
substance,measurement,value
colistin,time active when added to the growth medium,at least 4 months
